Reference: paper PMC8364686, “Safety, tolerability, pharmacokinetics and pharmacodynamics of single oral doses of BI 187004, an inhibitor of 11beta-hydroxysteroid dehydrogenase-1, in healthy male volunteers with overweight or obesity” (Clinical Diabetes and Endocrinology, 2021)
Where “and” joins values, the source holds several entries; their conditions need not be identical. Equal values may be shown once. This continues a long series; more values of the same kind are listed elsewhere.

Test: Plasma pharmacokinetics of BI 187004 after single oral doses (LC–MS/MS)
Conditions: for BI 187004 plasma concentrations: individual subjects

Structure (SMILES): N#Cc1ccc2c(c1)[C@H]1CCCN(C(=O)c3ccc4[nH]cnc4c3)[C@H]1C2 [BI 187004]
- Plasma concentration, individual subjects (5 mg single oral, planned time 0.5 h): 180 nmol/L and 161 nmol/L and 128 nmol/L
- Plasma concentration, individual subjects (5 mg single oral, planned time 1 h): 184 nmol/L and 191 nmol/L and 142 nmol/L
- Plasma concentration, individual subjects (5 mg single oral, planned time 1.5 h): 143 nmol/L and 155 nmol/L and 124 nmol/L
- Plasma concentration, individual subjects (5 mg single oral, planned time 2 h): 140 nmol/L and 142 nmol/L and 109 nmol/L
- Plasma concentration, individual subjects (5 mg single oral, planned time 2.5 h): 139 nmol/L and 144 nmol/L and 120 nmol/L
- Plasma concentration, individual subjects (5 mg single oral, planned time 3 h): 130 nmol/L and 138 nmol/L and 107 nmol/L
- Plasma concentration, individual subjects (5 mg single oral, planned time 4 h): 124 nmol/L and 135 nmol/L and 95.1 nmol/L
- Plasma concentration, individual subjects (5 mg single oral, planned time 5 h): 109 nmol/L and 122 nmol/L and 99.2 nmol/L
- Plasma concentration, individual subjects (5 mg single oral, planned time 6 h): 106 nmol/L and 77.0 nmol/L
- Plasma concentration, individual subjects (5 mg single oral, planned time 8 h): 93.4 nmol/L and 69.8 nmol/L
- Plasma concentration, individual subjects (5 mg single oral, planned time 10 h): 77.9 nmol/L and 55.7 nmol/L
- Plasma concentration, individual subjects (5 mg single oral, planned time 12 h): 49.0 nmol/L and 68.0 nmol/L and 43.3 nmol/L
- Plasma concentration, individual subjects (5 mg single oral, planned time 24 h): 33.4 nmol/L and 43.0 nmol/L and 21.9 nmol/L
- Plasma concentration, individual subjects (5 mg single oral, planned time 36 h): 16.9 nmol/L and 20.8 nmol/L and 8.76 nmol/L
- Plasma concentration, individual subjects (5 mg single oral, planned time 48 h): 10.7 nmol/L and 15.9 nmol/L and 8.90 nmol/L
- Plasma concentration, individual subjects (5 mg single oral, planned time 72 h): 6.47 nmol/L and 9.09 nmol/L and 5.40 nmol/L
- Plasma concentration, individual subjects (5 mg single oral, planned time 96 h): 4.03 nmol/L and 5.22 nmol/L and 4.10 nmol/L
- Plasma concentration, individual subjects (10 mg single oral, planned time 0.5 h): 252 nmol/L and 44.7 nmol/L and 460 nmol/L and 560 nmol/L and 605 nmol/L and 266 nmol/L
- Plasma concentration, individual subjects (10 mg single oral, planned time 1 h): 397 nmol/L and 402 nmol/L and 424 nmol/L and 467 nmol/L and 363 nmol/L
- Plasma concentration, individual subjects (10 mg single oral, planned time 1.5 h): 437 nmol/L and 420 nmol/L and 360 nmol/L and 439 nmol/L and 432 nmol/L
- Plasma concentration, individual subjects (10 mg single oral, planned time 2 h): 403 nmol/L and 349 nmol/L and 313 nmol/L and 395 nmol/L and 396 nmol/L
- Plasma concentration, individual subjects (10 mg single oral, planned time 2.5 h): 362 nmol/L and 323 nmol/L and 292 nmol/L and 399 nmol/L and 438 nmol/L
- Plasma concentration, individual subjects (10 mg single oral, planned time 3 h): 323 nmol/L and 304 nmol/L and 283 nmol/L and 344 nmol/L and 373 nmol/L
- Plasma concentration, individual subjects (10 mg single oral, planned time 4 h): 280 nmol/L and 385 nmol/L and 249 nmol/L and 351 nmol/L and 401 nmol/L
- Plasma concentration, individual subjects (10 mg single oral, planned time 5 h): 223 nmol/L and 206 nmol/L and 229 nmol/L and 314 nmol/L and 335 nmol/L
- Plasma concentration, individual subjects (10 mg single oral, planned time 6 h): 214 nmol/L and 204 nmol/L and 271 nmol/L and 302 nmol/L
- Plasma concentration, individual subjects (10 mg single oral, planned time 8 h): 170 nmol/L and 199 nmol/L and 148 nmol/L and 234 nmol/L and 284 nmol/L
- Plasma concentration, individual subjects (10 mg single oral, planned time 10 h): 231 nmol/L and 118 nmol/L and 150 nmol/L and 132 nmol/L and 208 nmol/L and 250 nmol/L
- Plasma concentration, individual subjects (10 mg single oral, planned time 12 h): 195 nmol/L and 115 nmol/L and 121 nmol/L and 84.7 nmol/L and 187 nmol/L and 173 nmol/L
- Plasma concentration, individual subjects (10 mg single oral, planned time 24 h): 112 nmol/L and 46.4 nmol/L and 67.2 nmol/L and 39.1 nmol/L and 92.8 nmol/L and 104 nmol/L
- Plasma concentration, individual subjects (10 mg single oral, planned time 36 h): 47.8 nmol/L and 14.1 nmol/L and 21.6 nmol/L and 12.8 nmol/L and 37.5 nmol/L and 47.4 nmol/L
- Plasma concentration, individual subjects (10 mg single oral, planned time 48 h): 35.7 nmol/L and 12.8 nmol/L and 15.5 nmol/L and 11.2 nmol/L and 29.2 nmol/L and 32.5 nmol/L
- Plasma concentration, individual subjects (10 mg single oral, planned time 72 h): 14.8 nmol/L and 6.84 nmol/L and 8.55 nmol/L and 5.11* nmol/L and 9.36 nmol/L and 13.9 nmol/L
- Plasma concentration, individual subjects (10 mg single oral, planned time 96 h): 8.06 nmol/L and 3.64 nmol/L and 5.09 nmol/L and 3.04* nmol/L and 4.52 nmol/L and 7.31 nmol/L
- BI 187004 plasma concentrations (20 mg single oral, planned time 0.5 h): 989 nmol/L and 34.3 nmol/L and 80.7 nmol/L and 338 nmol/L and 91.1 nmol/L and 1050 nmol/L
- BI 187004 plasma concentrations (20 mg single oral, planned time 1 h): 1130 nmol/L and 236 nmol/L and 1100 nmol/L and 750 nmol/L and 965 nmol/L
- BI 187004 plasma concentrations (20 mg single oral, planned time 1.5 h): 919 nmol/L and 842 nmol/L and 1050 nmol/L and 824 nmol/L and 969 nmol/L
- BI 187004 plasma concentrations (20 mg single oral, planned time 2 h): 832 nmol/L and 784 nmol/L and 966 nmol/L and 630 nmol/L and 947 nmol/L
- BI 187004 plasma concentrations (20 mg single oral, planned time 2.5 h): 783 nmol/L and 710 nmol/L and 1040 nmol/L and 619 nmol/L and 948 nmol/L
- BI 187004 plasma concentrations (20 mg single oral, planned time 3 h): 663 nmol/L and 586 nmol/L and 877 nmol/L and 610 nmol/L and 879 nmol/L
- BI 187004 plasma concentrations (20 mg single oral, planned time 4 h): 663 nmol/L and 537 nmol/L and 885 nmol/L and 531 nmol/L and 833 nmol/L
- BI 187004 plasma concentrations (20 mg single oral, planned time 5 h): 512 nmol/L and 463 nmol/L and 883 nmol/L and 535 nmol/L and 753 nmol/L
- BI 187004 plasma concentrations (20 mg single oral, planned time 6 h): 847 nmol/L and 447 nmol/L and 420 nmol/L and 611 nmol/L and 427 nmol/L and 646 nmol/L
- BI 187004 plasma concentrations (20 mg single oral, planned time 8 h): 378 nmol/L and 359 nmol/L and 631 nmol/L and 418 nmol/L and 354 nmol/L
- BI 187004 plasma concentrations (20 mg single oral, planned time 10 h): 524 nmol/L and 335 nmol/L and 253 nmol/L and 529 nmol/L and 288 nmol/L and 461 nmol/L
- BI 187004 plasma concentrations (20 mg single oral, planned time 12 h): 450 nmol/L and 251 nmol/L and 234 nmol/L and 457 nmol/L and 221 nmol/L and 370 nmol/L
- BI 187004 plasma concentrations (20 mg single oral, planned time 24 h): 353 nmol/L and 107 nmol/L and 95.1 nmol/L and 281 nmol/L and 85.8 nmol/L and 203 nmol/L
- BI 187004 plasma concentrations (20 mg single oral, planned time 36 h): 145 nmol/L and 33.6 nmol/L and 27.8 nmol/L and 96.8 nmol/L and 32.3 nmol/L and 68.5 nmol/L
- BI 187004 plasma concentrations (20 mg single oral, planned time 48 h): 104 nmol/L and 21.7 nmol/L and 19.4 nmol/L and 65.7 nmol/L and 15.8 nmol/L and 47.0 nmol/L
- BI 187004 plasma concentrations (20 mg single oral, planned time 72 h): 43.9 nmol/L and 9.53 nmol/L and 25.9 nmol/L and 6.98 nmol/L and 16.4 nmol/L
- BI 187004 plasma concentrations (20 mg single oral, planned time 96 h): 18.2 nmol/L and 6.00 nmol/L and 5.78 nmol/L and 12.4 nmol/L and 9.48 nmol/L
- BI 187004 plasma concentrations (40 mg single oral, planned time 0.5 h): 2530 nmol/L and 2400 nmol/L and 2460 nmol/L and 1110 nmol/L and 487 nmol/L and 1560 nmol/L
- BI 187004 plasma concentrations (40 mg single oral, planned time 1 h): 2820 nmol/L and 2490 nmol/L and 2320 nmol/L and 2690 nmol/L and 974 nmol/L and 1730 nmol/L
- BI 187004 plasma concentrations (40 mg single oral, planned time 1.5 h): 2610 nmol/L and 2240 nmol/L and 2220 nmol/L and 2090 nmol/L and 1020 nmol/L and 1540 nmol/L
- BI 187004 plasma concentrations (40 mg single oral, planned time 2 h): 2410 nmol/L and 1900 nmol/L and 2020 nmol/L and 1820 nmol/L and 1040 nmol/L and 1360 nmol/L
- BI 187004 plasma concentrations (40 mg single oral, planned time 2.5 h): 2010 nmol/L and 1920 nmol/L and 1820 nmol/L and 1160 nmol/L and 1420 nmol/L
- BI 187004 plasma concentrations (40 mg single oral, planned time 3 h): 1810 nmol/L and 1440 nmol/L and 1430 nmol/L and 1130 nmol/L
- BI 187004 plasma concentrations (40 mg single oral, planned time 4 h): 1650 nmol/L and 1700 nmol/L and 1410 nmol/L and 1320 nmol/L and 1020 nmol/L
- BI 187004 plasma concentrations (40 mg single oral, planned time 5 h): 1610 nmol/L and 1550 nmol/L and 1160 nmol/L and 1250 nmol/L and 888 nmol/L
- BI 187004 plasma concentrations (40 mg single oral, planned time 6 h): 1320 nmol/L and 1400 nmol/L and 985 nmol/L and 1020 nmol/L and 736 nmol/L
- BI 187004 plasma concentrations (40 mg single oral, planned time 8 h): 1190 nmol/L and 1100 nmol/L and 834 nmol/L and 973 nmol/L and 606 nmol/L
- BI 187004 plasma concentrations (40 mg single oral, planned time 10 h): 806 nmol/L and 1140 nmol/L and 975 nmol/L and 738 nmol/L and 823 nmol/L and 467 nmol/L
- BI 187004 plasma concentrations (40 mg single oral, planned time 12 h): 663 nmol/L and 984 nmol/L and 838 nmol/L and 538 nmol/L and 716 nmol/L and 359 nmol/L
- BI 187004 plasma concentrations (40 mg single oral, planned time 24 h): 291 nmol/L and 625 nmol/L and 436 nmol/L and 215 nmol/L and 379 nmol/L and 169 nmol/L
- BI 187004 plasma concentrations (40 mg single oral, planned time 36 h): 99.1 nmol/L and 377 nmol/L and 244 nmol/L and 70.1 nmol/L and 138 nmol/L and 51.5 nmol/L
- BI 187004 plasma concentrations (40 mg single oral, planned time 48 h): 60.3 nmol/L and 234 nmol/L and 143 nmol/L and 30.8 nmol/L and 72.0 nmol/L and 33.7 nmol/L
- BI 187004 plasma concentrations (40 mg single oral, planned time 72 h): 22.1 nmol/L and 83.4 nmol/L and 41.8 nmol/L and 8.48 nmol/L and 22.0 nmol/L and 14.2 nmol/L
- BI 187004 plasma concentrations (40 mg single oral, planned time 96 h): 13.3 nmol/L and 41.4 nmol/L and 16.0 nmol/L and 5.05 nmol/L and 8.34 nmol/L and 8.88 nmol/L
